Source: PubChem BioAssay AID1224830 (NIAID, 2016)

- Aim: 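Regulators of TLR4 signalling towards TNF-alpha in macrophage-like cells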 (primary screen)
- Cell system: human THP-1 monocytic leukaemia cells, TNF dual-luciferase reporter clone, PMA-differentiated to macrophage-like cells
- Knock-down reagent: siRNA pool against human genes, 50 nM
- Time to read-out: LPS for 4 h, given about 3 days after siRNA transfection
- Conditions: bacterial LPS (TLR4 ligand), 10 ng/ml
- Measured: 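Ratio of firefly to renilla light, scaled to the plate median and expressed as a robust z-score per replicate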
- Scale: TNF reporter robust z-score: higher = stronger TNF reporter response to LPS
- Rule for the call: 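Each well counts as active if its z-score is over 2.8 or under -1.5; controls are left without a call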
This is an unselected part of about 18,000 deposited reagents. About 2,900 of them (16%) were called active. 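Calls are made per well; low scores hint the gene aids the LPS response, high scores that it dampens it.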 Repeated entries: four replicate wells of each siRNA pool.

target	TNF reporter robust z-score	outcome
OMA1	-0.81	inactive
OMA1	0.92	inactive
OMA1	-1.37	inactive
OMA1	-0.28	inactive
C4orf50	-1.09	inactive
C4orf50	-0.35	inactive
C4orf50	-1.33	inactive
C4orf50	0.45	inactive
PARPBP	-0.36	inactive
PARPBP	-0.14	inactive
PARPBP	-1.03	inactive
PARPBP	0.08	inactive
COL4A5	-1.41	inactive
COL4A5	-0.75	inactive
COL4A5	0.86	inactive
COL4A5	1.44	inactive
MFAP3	-0.76	inactive
MFAP3	-0.51	inactive
MFAP3	-0.13	inactive
MFAP3	0.29	inactive
OR2Z1	0.4	inactive
OR2Z1	-0.26	inactive
OR2Z1	1.03	inactive
OR2Z1	1.14	inactive
RFPL3	0.53	inactive
RFPL3	-1.19	inactive
RFPL3	0.16	inactive
RFPL3	0.97	inactive
DTWD1	0.33	inactive
DTWD1	0.48	inactive
DTWD1	0.25	inactive
DTWD1	-0.01	inactive
RBAKDN	-0.01	inactive
RBAKDN	0.9	inactive
RBAKDN	-0.83	inactive
RBAKDN	-1.14	inactive
SCAI	-0.51	inactive
SCAI	-0.41	inactive
SCAI	-0.53	inactive
SCAI	0.08	inactive
PMAIP1	-1.64	active
PMAIP1	-1.45	inactive
PMAIP1	-0.79	inactive
PMAIP1	-1.61	active
LIPI	-0.93	inactive
LIPI	-0.92	inactive
LIPI	-1.02	inactive
LIPI	-0.68	inactive
SIGLEC7	-1.18	inactive
SIGLEC7	0.46	inactive
SIGLEC7	0.72	inactive
SIGLEC7	1.38	inactive
PPM1L	-0.77	inactive
PPM1L	0.65	inactive
PPM1L	0.2	inactive
PPM1L	-0.5	inactive
DNAH9	0.36	inactive
DNAH9	0.11	inactive
DNAH9	-0.96	inactive
DNAH9	-0.68	inactive
DNAAF8	0.9	inactive
DNAAF8	-0.09	inactive
DNAAF8	-0.6	inactive
DNAAF8	1.01	inactive
SAYSD1	2.98	active
SAYSD1	3.31	active
SAYSD1	0.64	inactive
SAYSD1	0.15	inactive
GEMIN2	-0.63	inactive
GEMIN2	-0.47	inactive
GEMIN2	-0.36	inactive
GEMIN2	-0.11	inactive
AMPH	-0.82	inactive
AMPH	-1.11	inactive
AMPH	-0.35	inactive
AMPH	-0.8	inactive
WDR86	0.69	inactive
WDR86	-0.85	inactive
WDR86	0.54	inactive
WDR86	0.15	inactive
ZC3H11D	1.85	inactive
ZC3H11D	0.96	inactive
ZC3H11D	-0.03	inactive
ZC3H11D	1.86	inactive
TRIM29	-0.02	inactive
TRIM29	0.07	inactive
TRIM29	1.47	inactive
TRIM29	-0.26	inactive
NDUFAF5	-0.29	inactive
NDUFAF5	-0.83	inactive
NDUFAF5	-0.39	inactive
NDUFAF5	2.48	inactive
GMNN	-1.35	inactive
GMNN	-0.86	inactive
GMNN	-1.24	inactive
GMNN	-0.21	inactive
NET1	-0.64	inactive
NET1	-0.59	inactive
NET1	-0.39	inactive
NET1	0.13	inactive
PPP1R16A	-0.11	inactive
PPP1R16A	-0.05	inactive
PPP1R16A	-0.99	inactive
PPP1R16A	-0.92	inactive
TBCEL	0.48	inactive
TBCEL	1.36	inactive
TBCEL	0.59	inactive
TBCEL	1.33	inactive
ANKRD27	0.05	inactive
ANKRD27	0.59	inactive
ANKRD27	0.67	inactive
ANKRD27	0.93	inactive
ABCC9	-0.3	inactive
ABCC9	0.28	inactive
ABCC9	-1.14	inactive
ABCC9	-0.12	inactive
WTAP	0.05	inactive
WTAP	0	inactive
WTAP	-0.59	inactive
WTAP	3.36	active
C8A	0.1	inactive
C8A	0.29	inactive
C8A	-0.43	inactive
C8A	0.19	inactive
INTS13	-0.84	inactive
INTS13	-0.01	inactive
INTS13	-0.12	inactive
INTS13	-0.38	inactive
CHD6	-0.51	inactive
CHD6	1.13	inactive
CHD6	0.76	inactive
CHD6	1.82	inactive
DUSP11	-1.02	inactive
DUSP11	-0.81	inactive
DUSP11	-1.54	active
DUSP11	-0.9	inactive
CHCHD7	0.79	inactive
CHCHD7	-0.34	inactive
CHCHD7	0.02	inactive
CHCHD7	0.38	inactive

Reagents above marked active (6):
target	TNF reporter robust z-score	outcome
PMAIP1	-1.64	active
PMAIP1	-1.61	active
SAYSD1	2.98	active
SAYSD1	3.31	active
WTAP	3.36	active
DUSP11	-1.54	active
